Data published in patent US9309308B2, “Monoclonal antibodies for tumor treatment” (CURETECH LTD., priority 2008, dated 2016).
“Also recorded” adds a separate entry of the source. At least one compound was matched to its structure with a doubt left.

Tested on: murine lymphocytes
Assay: In vitro functional assay based on viability of murine lymphocytes
Format: cell-based
Details: concomitant vs added 24 hours after hBAT-1; FIG. 5
Experimental: FIG. 1C. The effect of 5FU or vehicle control in the functional assay presented as viable cells/ml. The incubation time with 5FU or vehicle control (72 hours) is indicated on the x-axis.

CN(C)/N=N/c1[nH]cnc1C(N)=O [dacarbazine]
effect on activity of the antibody depending on schedule: adversely affects the activity of the antibody when given concomitantly but not when added 24 hours after the humanized antibody; also recorded: may be suitable only when used in a sequential administration schedule
